Patent US6399590B2, “Phosphoglycolipid and methods for its use” (Corixa Corporation, priority 1998, dated 2002)

Test system: Adult mongrel dogs, left anterior descending coronary artery (LAD) occlusion/reperfusion
Experiment: Infarct size in the dog, 60 min LAD occlusion and 3 h reperfusion
Format: in vivo
Settings: mean ± SEM
Protocol: Adult mongrel dogs of either sex, weighing 19.0-30.0 kg were fasted overnight, anaesthetized with intravenous sodium barbital (200 mg/kg) and sodium pentobarbital (15 mg/kg), and ventilated with room air supplemented with 100% oxygen at an end expiratory pressure of 5-7 cm H2O to prevent atelectasis. Arterial blood pH PO2 and PCO2 were monitored at selected intervals by an automatic blood gas system and maintained within a normal physiological range (pH 7.35-7.45, PO2 10.6-16.0 kPa, PCO2 3,3-4.7 kPa) by adjusting the respiratory rate and oxygen flow and by an infusion of 1.5% sodium bicarbonate when necessary. Body temperature was maintained at 38±1° C. by using a heating pad.
A double pressure-transducer-tipped catheter was inserted into the aorta and left ventricle via the left carotid artery for measurements of aortic and left ventricular pressure. Left ventricular dP/dt was determined by electronic differentiation of the left ventricular pressure pulse.
A left thoracotomy was performed at the fifth intercostal space. The lung was retracted, the pericardium incised, and the heart suspended in a cradle. A 10-15 mm segment of the left anterior descending coronary artery (LAD) was dissected from surrounding tissue. A calibrated electromagnetic flow probe was placed around the LAD to determine coronary blood flow. The left atrial appendage was cannulated for radioactive microsphere injections to determine regional myocardial blood flow to the ischemic and normal areas during reperfusion. Electrodes were attached to the left atrial appendage to pace the heart at 150 beats/min with an electronic stimulator (Grass SD9) when the heart rate dropped below 140 beats/min.
Animals were randomly assigned to five groups; those receiving 35 μg/kg drug 24 h intravenously before occlusion (24 h), those receiving 35 μg/kg drug 24 h before occlusion and 30 mg/kg aminoguanidine subcutaneously 60 min before occlusion, those receiving 70 μg/kg drug 10 min before occlusion (10 min), those receiving 30 mg/kg aminoguanidine 60 min before occlusion and vehicle controls. Hemodynamic variables were monitored and recorded throughout the experiment. The phosphoglycolipid of the subject invention, L34, formulated in 40% propylene glycol and 10% ethanol (tEOH) in Water for Injection (WFI) was diluted one to one in 5% dextrose in water (D5W) and injected as an intravenous bolus 24 h or 10 min before the experiment. The control group was treated with an equivalent volume of vehicle (40% propylene glycol, 10% EtOH in WFI diluted in D5W). All dogs were subjected to a 60 min period of LAD occlusion followed by 3 h of reperfusion.
Regional myocardial blood flow was measured by the radioactive microsphere technique. […]

Compound	Transmural Collateral (Blood Flow) (AG 30 mg/kg alone, 60 min before occlusion) [mL/min/g]	Transmural Collateral (Blood Flow) (L34 35 μg/kg 24 h before occlusion + AG 30 mg/kg s.c. 60 min before occlusion) [mL/min/g]	Transmural Collateral (Blood Flow) (L34 35 μg/kg i.v. 24 h before occlusion) [mL/min/g]	Transmural Collateral (Blood Flow) (L34 70 μg/kg i.v. 10 min before occlusion) [mL/min/g]
N=C(N)NN [AG, aminoguanidine, reference compound]	0.07 ± 0.02	–	–	–
CCCCCCCCCCCCCCCCCC(=O)O[C@H](CCCCCCCCCCC)CC(=O)N[C@H]1[C@H](OC[C@H]2OC(O)[C@H](NC(=O)C[C@@H](CCCCCCCCCCC)OC(=O)CCCCCCCCCCCCCCC)[C@@H](O)[C@@H]2O)O[C@H](CO)[C@@H](OP(=O)(O)O)[C@@H]1OC(=O)C[C@@H](CCCCCCCCCCC)OC(=O)CCCCCCCCCCCCC (stereo partly drawn) [L34, 2-Deoxy-6-O-[2-deoxy-4-O-phosphono-3-O-[(R)-3-tetradecanoyloxytetradecanoyl]-2-[(R)-3-octadecanoyloxytetradecanoylamino]-β-D-glucopyranosyl]-2-[(R)-3-hexadecanoyloxytetradecanoylamino]-D-glucopyranose]	–	0.06 ± 0.01	0.06 ± 0.01	0.05 ± 0.01
